Experimental data: PubChem BioAssay AID686943 (Drosophila RNAi Screening Center, 2013)
The screen tested about 23,000 reagents; below is an unselected part of those that have a named target and a result. 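Extra replicates exist only for a retested subset of genes; insulin dose and duration not given; both raised and lowered dpERK matter.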 A plus sign joins genes that one reagent is predicted to hit. Not given: the amount of reagent, the time to read-out.

Aim: 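Knockdowns that increase or decrease active ERK after insulin receptor stimulation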 (primary screen)
Cell system: Drosophila S2R+ haemocyte-like cells expressing YFP-tagged ERK (Rolled)
Reagent: long dsRNA against Drosophila genes
Conditions: insulin stimulation versus unstimulated cells; dose and duration not given
Detection: 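Per-plate z-scores of phospho-ERK immunostaining normalised to YFP-tagged ERK, measured with and without insulin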
Scale: replicate 1, z-score of dpERK with insulin and replicate 2, z-score of dpERK with insulin: higher = more active ERK per ERK-YFP after insulin; replicate 1, z-score of dpERK under basal conditions: higher = more basal active ERK per ERK-YFP; replicate 1, z-score of ERK-YFP with insulin: higher = more YFP-tagged ERK signal

The first 6 entries, ahead of the listing:
gene knocked down	dsRNA	replicate 1, z-score of dpERK with insulin	replicate 2, z-score of dpERK with insulin	replicate 1, z-score of dpERK under basal conditions	replicate 1, z-score of ERK-YFP with insulin
Ldaf1	DRSC17963	0.25	0.34	0.04	0.28
Toll-7	DRSC07563	0.42	0.3	-0.86	-0.48
RIOK1	DRSC09853	0.08	0	-0.31	0.42
CG34135 + CG11768	DRSC12702	-0.09	0.33	-0.36	0.59
ScsbetaA	DRSC14446	-1.04	-0.31	-0.41	-0.8
CG14205	DRSC19560	-0.5	0.24	-0.48	0.14

The listing, from the first entry:
gene knocked down	dsRNA	replicate 1, z-score of dpERK with insulin	replicate 2, z-score of dpERK with insulin	replicate 1, z-score of dpERK under basal conditions	replicate 1, z-score of ERK-YFP with insulin
Ldaf1	DRSC17963	0.25	0.34	0.04	0.28
Toll-7	DRSC07563	0.42	0.3	-0.86	-0.48
RIOK1	DRSC09853	0.08	0	-0.31	0.42
CG34135 + CG11768	DRSC12702	-0.09	0.33	-0.36	0.59
ScsbetaA	DRSC14446	-1.04	-0.31	-0.41	-0.8
CG14205	DRSC19560	-0.5	0.24	-0.48	0.14
mv	DRSC08208	-0.21	-0.56	-0.62	0.19
mv	DRSC08570	-0.55	0.07	0.27	0.3
Eip63F-1	DRSC08072	-0.03	0.02	-0.64	-0.08
Eip63F-1	DRSC08659	0.2	0.46	-0.22	0.76
Cap-G	DRSC06652	1.35	0.17	1.06	0.22
Cap-G	DRSC06653	0.49	0.65	2.79	0.05
Cap-G	DRSC21805	0.41	-0.64	2.96	0.06
CG14280	DRSC14761	-0.02	-0.35	0.9	-0.08
thoc6	DRSC10528	-0.16	0.23	-0.37	0.75
corn	DRSC11021	-0.52	-0.71	-0.09	0.29
corn	DRSC21943	0.69	0.64	0.98	-1.58
ppk24	DRSC15093	7.03	1.14	1.09	-0.08
CG14095	DRSC10098	0.42	0.41	-0.23	0.56
CG1888	DRSC06797	-0.12	0.17	-0.22	0.58
CG4781	DRSC04488	1.93	0.49	0.7	-0.03
CG33322	DRSC03204	0.06	0.52	0.56	-0.3
Ptpa	DRSC00776	-0.39	-0.11	0.48	0.65
CG1116	DRSC12166	0.92	-0.3	0.09	0.05
dpr19	DRSC02237	-0.27	0.2	-0.22	1.64
CG6833	DRSC10721	-0.05	-0.41	-0.26	-0.44
Nhe3	DRSC03380	1.09	-0.05	-0.5	0.47
CG10514	DRSC14249	-0.39	-0.29	0.34	-0.62
CG7878	DRSC16330	-1.58	0.11	-0.78	2.85
Dph2	DRSC16222	0.04	0.16	-0.19	-2.95
Spn53F	DRSC06022	0.23	0.56	0.93	0.03
CG3434	DRSC10365	0.1	-0.39	-0.08	0.53
CG3902	DRSC10387	0.08	0.06	0.84	0.21
CG33285	DRSC11463	0.79	0.35	0.49	0.08
CG13501	DRSC04146	-0.09	0.59	0.07	0.45
Remo	DRSC19710	-0.96	-0.81	-0.9	1.17
Obp56i	DRSC05812	-0.5	-0.14	-0.8	0.1
Dh31	DRSC02196	0.12	2.85	1.3	0.88
kon	DRSC02033	-0.63	-0.54	-0.62	0.17
CG32551	DRSC19259	-0.5	-0.02	-0.79	0.35
dnr1	DRSC03948	0.13	-0.59	0.55	0.05
dnr1	DRSC04122	0.49	0.88	1.36	0.55
CG17219	DRSC00486	0.56	0.01	-0.21	1.72
Antp	DRSC12490	-2.04	0.37	0.95	-3.15
CG33474	DRSC05218	0.1	0.51	-0.15	-0.75
fj	DRSC07619	0.28	-0.27	0.24	0.03
CG42712 (retired record)	DRSC01038	-0.53	-0.48	0.62	1.11
CG3868	DRSC10380	-0.14	-0.38	0.09	-0.77
CG4408	DRSC15574	0.03	-0.78	-0.55	0.61
Tmtc2	DRSC00272	-0.81	-0.37	-0.03	-0.36
pira	DRSC19494	-0.36	-0.79	1.69	0.69
Use1	DRSC10180	0.63	0.78	0.19	0.19
CG6923	DRSC16136	0.59	1.06	-0.28	-0.53
morgue	DRSC00264	-1.13	-1.96	0.07	-0.47
Fas2	DRSC17308	-1.43	-0.42	-0.3	-1.03
Fas2	DRSC17309	-0.13	0.15	-0.35	-0.13
Fas2	DRSC18664	-0.08	0.3	1.9	-0.64
Sgt	DRSC02812	-2.86	-1.88	-0.12	-0.26
Dup99B	DRSC22877	0.3	0.83	-1.36	0.11
QC	DRSC09736	-0.39	-1.22	0.27	0.27
Ddc	DRSC03314	0.63	0.21	0.42	0
CG1092	DRSC12151	-0.1	0.23	0.11	0.19
Adgf-A	DRSC10566	-0.07	-0.47	0.35	0.54
ACXD	DRSC07843	-0.14	1.06	0.59	0
Sidpn	DRSC02056	0.07	-0.33	-0.82	0.18
nAChRbeta3	DRSC00325	-0.32	1.4	0.49	-1.68
CG15023	DRSC08477	0.09	-1.03	-0.14	0.43
Cyp309a2	DRSC00526	0.02	0.55	2.03	-0.28
Octbeta2R	DRSC12917	1.44	0.7	0.74	0.45
Octbeta2R	DRSC15350	-1.97	-0.45	-1.22	2.33
Octbeta2R	DRSC16165	0.94	0.67	-0.15	-0.55
SamDC	DRSC03429	0.82	1.71	1.85	1.13
CG3603	DRSC18317	-1.02	-0.3	0.32	0.34
